Test results taken from paper PMC11079001.
Changes are numbered by the printed parent chain. No constants are given. Whether binding was seen depends on the method and setting. In cells and extracts the contact can be indirect. Some binding calls cover weakened binding; strength is not graded here. Tags and fused reporters may be left off the sequences shown.

Sequences of proteins named here, by UniProt entry; tags and fusion partners are left off.
UniProt P52286: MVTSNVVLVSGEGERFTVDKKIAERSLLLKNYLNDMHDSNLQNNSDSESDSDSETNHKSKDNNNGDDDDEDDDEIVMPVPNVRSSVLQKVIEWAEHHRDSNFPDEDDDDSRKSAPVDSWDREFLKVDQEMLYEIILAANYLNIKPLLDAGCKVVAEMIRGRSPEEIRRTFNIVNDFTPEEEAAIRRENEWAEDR

Legend:
Assay in all cases: co-IP; 12xMyc-Met30 variants immunoprecipitated on MYC-trap beads from 1 mg native yeast whole cell lysate (Triton X-100 buffer: 50 mM HEPES pH 7.5, 0.2% Triton X-100, 200 mM NaCl), overnight at 4 °C; co-precipitated Skp1 by western blot; cells untreated or treated with 100 µM CdCl2 (time courses); also H2O2 or zinc pre-treatment
[1] = target: T1, 12xMyc-Met30 C228S (S. cerevisiae) (UniProt P39014)
T1 sequence: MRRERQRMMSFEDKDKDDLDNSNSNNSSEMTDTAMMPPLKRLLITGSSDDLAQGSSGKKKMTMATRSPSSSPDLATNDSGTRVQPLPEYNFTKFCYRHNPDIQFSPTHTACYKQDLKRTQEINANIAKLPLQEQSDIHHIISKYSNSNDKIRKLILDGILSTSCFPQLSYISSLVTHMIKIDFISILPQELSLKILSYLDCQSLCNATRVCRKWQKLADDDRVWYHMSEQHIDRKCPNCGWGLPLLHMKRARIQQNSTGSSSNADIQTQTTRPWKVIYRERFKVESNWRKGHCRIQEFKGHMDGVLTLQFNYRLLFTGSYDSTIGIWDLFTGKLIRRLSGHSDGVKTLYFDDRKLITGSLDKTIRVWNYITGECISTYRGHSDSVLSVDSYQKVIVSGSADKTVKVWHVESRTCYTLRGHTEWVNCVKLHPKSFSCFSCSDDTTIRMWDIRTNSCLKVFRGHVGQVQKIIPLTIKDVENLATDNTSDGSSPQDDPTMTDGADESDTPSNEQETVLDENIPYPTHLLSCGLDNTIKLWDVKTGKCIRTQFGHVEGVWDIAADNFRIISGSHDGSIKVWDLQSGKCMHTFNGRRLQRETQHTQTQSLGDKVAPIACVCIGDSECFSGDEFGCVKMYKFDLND

[2] = target: T2, 12xMyc-Met30 C205S (S. cerevisiae) (UniProt P39014)
T2 sequence: T1 sequence with C205S, S228C

[3] = target: T3, 12xMyc-Met30 C201S C205S C211S (S. cerevisiae) (UniProt P39014)
T3 sequence: T1 sequence with C201S, C205S, C211S, S228C

Measured: binding

Skp1 (from UniProt P52286 1-194)
binds: [1] | [2] | [3]
